Data as given in paper doi:10.1101/2025.10.28.684968.
Like-named read-outs stand apart in the source and are kept apart here. Results are given in words; binding and its absence hold for the method and conditions named. In cells and extracts the contact can be indirect. Some entries that bind do so weakly or less than the wild type. For part of these data: Where a sequence is shown, tags or fusion partners need not be part of it.

Amino acid sequences for entries named in this document (tags omitted). A change or cut given only in a name is not applied to a line headed by its entry. Residues count along the entry.
UniProt P07355, whole entry: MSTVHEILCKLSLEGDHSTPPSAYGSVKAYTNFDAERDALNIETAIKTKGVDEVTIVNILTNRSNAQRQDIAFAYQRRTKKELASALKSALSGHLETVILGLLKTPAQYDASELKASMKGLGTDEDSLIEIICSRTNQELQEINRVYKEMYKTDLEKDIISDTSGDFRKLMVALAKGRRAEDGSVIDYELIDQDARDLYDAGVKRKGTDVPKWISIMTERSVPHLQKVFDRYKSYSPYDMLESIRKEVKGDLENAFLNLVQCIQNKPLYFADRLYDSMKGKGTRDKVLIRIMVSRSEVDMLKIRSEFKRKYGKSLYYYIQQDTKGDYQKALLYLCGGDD
UniProt P07355, 1-108: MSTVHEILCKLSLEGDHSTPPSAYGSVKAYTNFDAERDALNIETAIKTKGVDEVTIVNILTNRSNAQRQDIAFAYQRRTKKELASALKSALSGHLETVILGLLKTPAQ
UniProt P07355, 1-187: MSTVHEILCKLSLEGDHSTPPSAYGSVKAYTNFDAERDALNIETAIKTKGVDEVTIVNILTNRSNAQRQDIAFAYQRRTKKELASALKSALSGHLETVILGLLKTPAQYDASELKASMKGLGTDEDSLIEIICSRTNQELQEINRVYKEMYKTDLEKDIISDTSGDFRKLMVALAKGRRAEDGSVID
UniProt P07355, 1-268: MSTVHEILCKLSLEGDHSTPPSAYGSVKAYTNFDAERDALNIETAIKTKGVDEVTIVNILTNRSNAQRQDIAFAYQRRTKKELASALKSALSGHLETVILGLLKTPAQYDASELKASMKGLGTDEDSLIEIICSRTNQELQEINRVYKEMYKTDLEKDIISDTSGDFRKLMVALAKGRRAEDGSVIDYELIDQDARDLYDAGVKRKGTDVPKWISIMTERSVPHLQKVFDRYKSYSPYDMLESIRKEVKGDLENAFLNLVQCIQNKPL

How the values were obtained:
Experiment in all cases: co-IP
[1] = molecular target: T1, Melanoma differentiation-associated protein 5 (MDA5), endogenous in THP1 cells (human (endogenous in THP1)) (UniProt Q9BYX4)
T1 sequence: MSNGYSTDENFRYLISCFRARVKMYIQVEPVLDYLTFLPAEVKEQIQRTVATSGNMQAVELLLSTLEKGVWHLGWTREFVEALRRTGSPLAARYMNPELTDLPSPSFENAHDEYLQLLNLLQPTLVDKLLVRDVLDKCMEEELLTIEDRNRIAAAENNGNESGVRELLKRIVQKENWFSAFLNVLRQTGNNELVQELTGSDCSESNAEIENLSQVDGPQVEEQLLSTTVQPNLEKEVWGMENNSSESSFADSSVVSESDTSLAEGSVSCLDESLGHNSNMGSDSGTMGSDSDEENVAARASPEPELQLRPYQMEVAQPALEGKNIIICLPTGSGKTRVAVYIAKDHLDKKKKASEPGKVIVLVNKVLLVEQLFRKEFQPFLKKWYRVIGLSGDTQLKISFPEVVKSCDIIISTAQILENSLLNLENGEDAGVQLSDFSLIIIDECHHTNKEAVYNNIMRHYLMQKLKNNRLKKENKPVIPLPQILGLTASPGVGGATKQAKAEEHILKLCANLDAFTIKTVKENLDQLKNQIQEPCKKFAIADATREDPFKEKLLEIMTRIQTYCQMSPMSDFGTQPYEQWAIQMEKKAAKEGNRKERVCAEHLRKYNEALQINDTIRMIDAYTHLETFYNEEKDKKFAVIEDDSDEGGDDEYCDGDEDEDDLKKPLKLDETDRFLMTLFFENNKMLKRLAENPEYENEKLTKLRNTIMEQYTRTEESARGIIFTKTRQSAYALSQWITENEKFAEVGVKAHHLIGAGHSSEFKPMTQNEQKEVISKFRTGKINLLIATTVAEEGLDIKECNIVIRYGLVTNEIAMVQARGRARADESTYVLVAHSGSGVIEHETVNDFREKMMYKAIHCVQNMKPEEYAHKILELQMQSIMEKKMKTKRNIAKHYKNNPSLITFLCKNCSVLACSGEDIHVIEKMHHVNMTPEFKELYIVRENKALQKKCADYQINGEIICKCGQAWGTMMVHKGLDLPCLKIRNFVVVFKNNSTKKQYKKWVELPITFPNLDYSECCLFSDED

[2] = molecular target: T1, Melanoma differentiation-associated protein 5 (MDA5), endogenous in THP1 cells (human (endogenous in THP1)); remark: listed apart in the source
[3] = molecular target: T2, FLAG-MDA5 (human (cDNA from HEK293 cells)) (UniProt Q9BYX4)
T2 sequence: T1 sequence

[4] = molecular target: T3, FLAG-MDA5-ΔCARD (human (cDNA from HEK293 cells)) (UniProt Q9BYX4)
T3 sequence: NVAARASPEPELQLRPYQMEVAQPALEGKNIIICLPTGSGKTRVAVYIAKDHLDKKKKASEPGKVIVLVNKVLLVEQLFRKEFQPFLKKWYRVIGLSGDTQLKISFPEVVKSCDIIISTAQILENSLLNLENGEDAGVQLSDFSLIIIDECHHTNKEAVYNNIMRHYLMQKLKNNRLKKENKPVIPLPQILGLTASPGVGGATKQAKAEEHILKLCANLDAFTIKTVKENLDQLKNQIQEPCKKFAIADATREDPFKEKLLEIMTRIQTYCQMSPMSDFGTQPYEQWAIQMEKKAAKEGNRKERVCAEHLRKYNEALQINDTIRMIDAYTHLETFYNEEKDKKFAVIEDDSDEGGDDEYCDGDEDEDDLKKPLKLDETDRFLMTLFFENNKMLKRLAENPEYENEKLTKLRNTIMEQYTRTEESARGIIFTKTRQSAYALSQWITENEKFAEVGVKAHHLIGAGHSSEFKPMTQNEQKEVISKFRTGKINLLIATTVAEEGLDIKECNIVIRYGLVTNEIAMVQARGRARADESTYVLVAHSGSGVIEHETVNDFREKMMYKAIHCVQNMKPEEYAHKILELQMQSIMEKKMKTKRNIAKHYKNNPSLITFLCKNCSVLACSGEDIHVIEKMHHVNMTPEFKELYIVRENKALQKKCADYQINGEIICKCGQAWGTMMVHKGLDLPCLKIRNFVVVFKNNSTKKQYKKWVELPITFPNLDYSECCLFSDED

For “Annexin A2 (ANXA2), endogenous in THP1 cells (from UniProt P07355 1-339)”, the binding [1] was “no binding (condition: uninfected cells)” and the binding [2] was “binds”.
In the case of HA-ANXA2 (from UniProt P07355 1-339), the binding [3] is reported as “binds” and the binding [4] is reported as “no binding”.
In the case of “HA-ANXA2-PP1-mut (from UniProt P07355 1-339)”, the binding [3] is reported as “binds”.
In the case of “HA-ANXA2-S12A (from UniProt P07355 1-339)”, the binding [3] is reported as “binds”.
“HA-ANXA2-Y109X (from UniProt P07355 1-108) (domain or fragment)” was tested, and the binding [3] was “binds”.
“HA-ANXA2-Y188X (from UniProt P07355 1-187) (domain or fragment)” was tested, and the binding [3] was “binds”.
In the case of “HA-ANXA2-Y269X (from UniProt P07355 1-268) (domain or fragment)”, the binding [3] is reported as “binds”.
